# According to patent US20170056373A1, “GHRELIN O-ACYLTRANSFERASE INHIBITORS” (SYRACUSE UNIVERSITY, priority 2015, published 2017):
# Some of these results come from one statement about several compounds together.
# Tested on: 293FT-hPPG-mGOAT cells
# Assay: inhibitor cytotoxicity by AlamarBlue assay
# Assay type: cell-based
# Details: stably transfected HEK293FT cell line, 24 hours, Alamar Blue
smiles,measurement,value
CCNC(=O)[C@]12CCC(C)(C)C[C@H]1[C@H]1C(=O)C=C3[C@@]4(C)C=C(C#N)C(=O)C(C)(C)[C@@H]4CC[C@@]3(C)[C@]1(C)CC2 [CDDO-EA],apparent LD50 concentration (cytotoxicity),≥ 10 µM
